The results in this text go back to the supplement of paper PMC10849652.

Sequences of proteins named here, by UniProt entry; tags and fusion partners are left off. A change or cut given only in a name is not applied to a line headed by its entry.
UniProt P50570: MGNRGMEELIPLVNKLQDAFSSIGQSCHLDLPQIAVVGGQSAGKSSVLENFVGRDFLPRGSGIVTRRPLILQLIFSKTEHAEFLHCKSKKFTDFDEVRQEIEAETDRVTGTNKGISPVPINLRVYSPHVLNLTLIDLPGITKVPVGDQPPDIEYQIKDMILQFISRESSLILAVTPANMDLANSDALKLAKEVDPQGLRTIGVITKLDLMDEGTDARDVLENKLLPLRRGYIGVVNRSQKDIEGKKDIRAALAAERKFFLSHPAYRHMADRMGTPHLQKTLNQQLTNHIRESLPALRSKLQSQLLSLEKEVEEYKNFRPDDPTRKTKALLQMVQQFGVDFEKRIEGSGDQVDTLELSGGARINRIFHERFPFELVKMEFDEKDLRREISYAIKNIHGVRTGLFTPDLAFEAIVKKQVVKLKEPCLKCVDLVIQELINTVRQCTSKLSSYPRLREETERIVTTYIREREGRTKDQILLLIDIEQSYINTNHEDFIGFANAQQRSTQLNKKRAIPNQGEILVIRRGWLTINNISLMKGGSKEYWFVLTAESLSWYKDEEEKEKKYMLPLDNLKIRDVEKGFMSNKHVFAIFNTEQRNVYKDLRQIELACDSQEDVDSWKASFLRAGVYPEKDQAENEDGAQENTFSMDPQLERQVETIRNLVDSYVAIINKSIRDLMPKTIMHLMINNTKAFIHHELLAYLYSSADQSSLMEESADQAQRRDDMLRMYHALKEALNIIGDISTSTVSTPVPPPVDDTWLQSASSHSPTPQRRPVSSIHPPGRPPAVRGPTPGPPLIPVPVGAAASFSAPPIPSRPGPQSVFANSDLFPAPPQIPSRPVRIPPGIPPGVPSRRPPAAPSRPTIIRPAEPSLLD
UniProt Q9UBS3: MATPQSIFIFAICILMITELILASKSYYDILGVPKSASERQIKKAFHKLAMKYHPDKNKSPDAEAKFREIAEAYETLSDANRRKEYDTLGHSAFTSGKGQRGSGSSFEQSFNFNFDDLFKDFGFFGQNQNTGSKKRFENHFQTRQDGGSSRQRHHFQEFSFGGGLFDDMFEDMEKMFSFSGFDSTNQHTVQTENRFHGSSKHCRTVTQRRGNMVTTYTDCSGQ
UniProt Q9NYP3: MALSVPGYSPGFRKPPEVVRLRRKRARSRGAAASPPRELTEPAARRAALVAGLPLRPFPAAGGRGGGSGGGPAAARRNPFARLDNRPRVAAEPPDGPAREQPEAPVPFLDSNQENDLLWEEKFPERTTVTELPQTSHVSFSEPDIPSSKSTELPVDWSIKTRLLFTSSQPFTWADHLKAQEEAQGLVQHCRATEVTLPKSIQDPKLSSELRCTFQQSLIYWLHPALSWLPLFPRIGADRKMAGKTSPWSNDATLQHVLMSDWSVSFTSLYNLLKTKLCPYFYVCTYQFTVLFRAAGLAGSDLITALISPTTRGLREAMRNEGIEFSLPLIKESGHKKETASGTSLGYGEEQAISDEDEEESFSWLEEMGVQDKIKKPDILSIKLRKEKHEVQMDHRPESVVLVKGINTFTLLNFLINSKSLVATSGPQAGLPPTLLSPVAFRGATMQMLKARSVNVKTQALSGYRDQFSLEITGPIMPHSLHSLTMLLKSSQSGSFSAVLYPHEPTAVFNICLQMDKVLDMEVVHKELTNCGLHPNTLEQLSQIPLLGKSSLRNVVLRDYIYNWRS
UniProt Q9H3H5: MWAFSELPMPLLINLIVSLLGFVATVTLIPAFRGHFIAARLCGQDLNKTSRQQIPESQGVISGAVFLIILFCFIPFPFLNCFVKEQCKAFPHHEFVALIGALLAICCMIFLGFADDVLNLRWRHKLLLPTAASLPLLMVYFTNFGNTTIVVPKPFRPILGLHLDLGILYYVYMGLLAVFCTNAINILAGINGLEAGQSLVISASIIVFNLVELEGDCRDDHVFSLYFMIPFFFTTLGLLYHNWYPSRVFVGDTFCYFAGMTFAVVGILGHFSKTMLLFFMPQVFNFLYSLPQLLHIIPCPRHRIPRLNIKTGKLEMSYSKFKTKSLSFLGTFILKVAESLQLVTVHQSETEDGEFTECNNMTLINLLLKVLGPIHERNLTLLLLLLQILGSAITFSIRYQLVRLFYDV
UniProt Q8N5I4: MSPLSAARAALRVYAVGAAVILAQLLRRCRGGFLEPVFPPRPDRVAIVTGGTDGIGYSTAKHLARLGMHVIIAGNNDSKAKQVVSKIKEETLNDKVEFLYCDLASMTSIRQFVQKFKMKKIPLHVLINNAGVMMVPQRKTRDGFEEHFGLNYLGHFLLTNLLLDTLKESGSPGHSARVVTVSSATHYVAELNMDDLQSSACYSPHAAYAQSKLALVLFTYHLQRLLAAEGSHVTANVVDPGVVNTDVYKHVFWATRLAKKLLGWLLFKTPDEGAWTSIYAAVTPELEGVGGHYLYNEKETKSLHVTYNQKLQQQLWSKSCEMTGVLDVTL
UniProt Q6UX07: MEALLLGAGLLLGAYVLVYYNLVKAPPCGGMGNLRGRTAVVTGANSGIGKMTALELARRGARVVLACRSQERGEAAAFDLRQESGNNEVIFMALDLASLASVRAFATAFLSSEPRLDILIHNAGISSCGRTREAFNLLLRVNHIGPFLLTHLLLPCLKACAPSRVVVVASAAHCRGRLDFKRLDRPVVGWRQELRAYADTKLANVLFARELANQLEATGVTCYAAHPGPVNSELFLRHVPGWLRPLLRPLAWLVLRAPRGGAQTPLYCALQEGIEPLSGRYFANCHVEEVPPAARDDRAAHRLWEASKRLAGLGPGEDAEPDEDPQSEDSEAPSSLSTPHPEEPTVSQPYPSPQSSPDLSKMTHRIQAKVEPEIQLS
UniProt Q5SXM8: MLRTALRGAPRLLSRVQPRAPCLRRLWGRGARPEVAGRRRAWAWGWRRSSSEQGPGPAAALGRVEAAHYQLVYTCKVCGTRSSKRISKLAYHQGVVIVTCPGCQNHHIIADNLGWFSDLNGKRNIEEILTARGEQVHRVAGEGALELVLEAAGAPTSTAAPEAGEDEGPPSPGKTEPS
UniProt Q5JWR5: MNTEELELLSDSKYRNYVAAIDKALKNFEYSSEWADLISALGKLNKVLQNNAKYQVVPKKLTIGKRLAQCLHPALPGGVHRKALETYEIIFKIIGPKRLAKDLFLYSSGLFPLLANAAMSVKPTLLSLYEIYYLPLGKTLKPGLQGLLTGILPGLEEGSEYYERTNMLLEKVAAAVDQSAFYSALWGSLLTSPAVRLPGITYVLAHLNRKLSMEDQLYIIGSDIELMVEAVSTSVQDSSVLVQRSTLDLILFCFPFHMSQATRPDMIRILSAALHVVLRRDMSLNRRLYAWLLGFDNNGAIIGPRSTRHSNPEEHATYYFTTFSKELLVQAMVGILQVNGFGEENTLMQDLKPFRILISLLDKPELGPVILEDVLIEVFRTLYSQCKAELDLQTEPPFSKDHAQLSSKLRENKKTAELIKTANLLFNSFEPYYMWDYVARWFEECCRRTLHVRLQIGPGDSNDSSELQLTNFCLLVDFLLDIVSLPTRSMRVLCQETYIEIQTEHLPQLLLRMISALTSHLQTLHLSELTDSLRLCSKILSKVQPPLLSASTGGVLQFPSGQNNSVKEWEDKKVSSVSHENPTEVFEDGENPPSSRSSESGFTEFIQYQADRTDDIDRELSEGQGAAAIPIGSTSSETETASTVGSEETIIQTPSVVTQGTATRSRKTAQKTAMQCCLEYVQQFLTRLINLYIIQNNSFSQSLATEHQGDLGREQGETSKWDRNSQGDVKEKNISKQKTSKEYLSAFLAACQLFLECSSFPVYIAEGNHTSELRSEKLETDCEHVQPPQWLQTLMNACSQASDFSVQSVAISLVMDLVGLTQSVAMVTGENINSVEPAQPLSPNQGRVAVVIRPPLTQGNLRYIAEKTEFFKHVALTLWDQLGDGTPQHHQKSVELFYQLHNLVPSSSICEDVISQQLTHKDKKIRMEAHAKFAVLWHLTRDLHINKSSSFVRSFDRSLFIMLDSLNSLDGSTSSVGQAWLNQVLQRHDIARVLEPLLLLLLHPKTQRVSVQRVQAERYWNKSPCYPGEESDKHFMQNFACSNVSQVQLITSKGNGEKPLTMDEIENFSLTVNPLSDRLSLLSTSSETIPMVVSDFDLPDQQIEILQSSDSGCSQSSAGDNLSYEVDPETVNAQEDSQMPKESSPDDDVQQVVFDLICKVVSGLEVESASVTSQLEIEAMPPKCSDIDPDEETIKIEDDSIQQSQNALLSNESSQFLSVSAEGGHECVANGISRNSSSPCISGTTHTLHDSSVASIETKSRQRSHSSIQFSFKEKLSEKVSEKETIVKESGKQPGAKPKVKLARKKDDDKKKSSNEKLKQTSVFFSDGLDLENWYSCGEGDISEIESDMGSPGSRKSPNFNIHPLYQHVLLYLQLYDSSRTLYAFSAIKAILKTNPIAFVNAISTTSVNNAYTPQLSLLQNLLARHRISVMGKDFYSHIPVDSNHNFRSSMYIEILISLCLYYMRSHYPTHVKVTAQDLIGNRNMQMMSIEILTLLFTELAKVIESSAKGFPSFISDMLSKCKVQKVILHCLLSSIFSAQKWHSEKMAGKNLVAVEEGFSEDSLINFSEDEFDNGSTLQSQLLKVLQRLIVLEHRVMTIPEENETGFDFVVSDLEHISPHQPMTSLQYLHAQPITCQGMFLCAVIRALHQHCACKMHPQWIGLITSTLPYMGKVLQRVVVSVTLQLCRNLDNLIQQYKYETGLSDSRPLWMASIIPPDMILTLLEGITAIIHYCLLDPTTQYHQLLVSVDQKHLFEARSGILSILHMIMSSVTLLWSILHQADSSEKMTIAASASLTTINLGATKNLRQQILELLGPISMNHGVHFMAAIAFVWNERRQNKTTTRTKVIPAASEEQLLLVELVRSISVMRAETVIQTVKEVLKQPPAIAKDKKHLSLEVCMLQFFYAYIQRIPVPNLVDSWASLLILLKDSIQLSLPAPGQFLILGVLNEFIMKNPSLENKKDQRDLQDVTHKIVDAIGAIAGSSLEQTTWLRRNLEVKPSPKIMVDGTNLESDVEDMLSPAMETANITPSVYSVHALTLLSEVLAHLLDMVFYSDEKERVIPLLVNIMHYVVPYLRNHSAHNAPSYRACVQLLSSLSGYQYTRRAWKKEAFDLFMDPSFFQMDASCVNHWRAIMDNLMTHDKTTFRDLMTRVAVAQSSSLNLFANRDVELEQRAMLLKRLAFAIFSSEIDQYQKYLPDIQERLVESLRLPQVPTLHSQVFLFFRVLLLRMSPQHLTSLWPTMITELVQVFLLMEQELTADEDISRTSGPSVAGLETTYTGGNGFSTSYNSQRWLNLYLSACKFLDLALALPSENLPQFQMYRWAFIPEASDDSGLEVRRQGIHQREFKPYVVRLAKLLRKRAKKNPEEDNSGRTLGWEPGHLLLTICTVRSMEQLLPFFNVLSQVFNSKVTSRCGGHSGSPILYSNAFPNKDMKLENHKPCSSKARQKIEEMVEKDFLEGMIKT
UniProt Q6Y2X3: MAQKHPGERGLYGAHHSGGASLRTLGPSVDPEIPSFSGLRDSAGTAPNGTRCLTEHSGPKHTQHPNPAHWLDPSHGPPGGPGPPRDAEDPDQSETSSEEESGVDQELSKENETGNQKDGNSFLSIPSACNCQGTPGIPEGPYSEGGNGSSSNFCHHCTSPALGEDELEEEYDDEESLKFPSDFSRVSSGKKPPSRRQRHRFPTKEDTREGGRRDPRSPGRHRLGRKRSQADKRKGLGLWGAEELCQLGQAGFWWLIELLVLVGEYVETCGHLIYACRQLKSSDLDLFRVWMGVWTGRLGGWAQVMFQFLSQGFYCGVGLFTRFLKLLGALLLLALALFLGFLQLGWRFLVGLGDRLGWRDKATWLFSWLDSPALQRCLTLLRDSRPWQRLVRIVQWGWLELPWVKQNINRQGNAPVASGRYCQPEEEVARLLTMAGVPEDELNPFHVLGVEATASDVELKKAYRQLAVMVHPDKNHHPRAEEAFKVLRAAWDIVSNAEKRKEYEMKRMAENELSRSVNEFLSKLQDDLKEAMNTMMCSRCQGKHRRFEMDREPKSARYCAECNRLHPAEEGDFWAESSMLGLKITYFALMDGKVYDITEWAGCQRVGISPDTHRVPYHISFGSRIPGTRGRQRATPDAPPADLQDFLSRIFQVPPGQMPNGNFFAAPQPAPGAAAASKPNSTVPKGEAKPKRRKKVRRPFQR
UniProt P49184: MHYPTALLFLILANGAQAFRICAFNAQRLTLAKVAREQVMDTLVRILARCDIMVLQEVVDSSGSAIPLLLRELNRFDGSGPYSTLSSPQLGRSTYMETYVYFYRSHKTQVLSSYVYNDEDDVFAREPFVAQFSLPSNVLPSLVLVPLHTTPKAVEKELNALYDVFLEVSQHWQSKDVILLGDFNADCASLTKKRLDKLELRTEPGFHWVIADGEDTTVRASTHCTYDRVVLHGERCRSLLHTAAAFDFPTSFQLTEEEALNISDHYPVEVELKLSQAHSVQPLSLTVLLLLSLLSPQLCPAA

The list shows a part of the results.

Compound in the first experiment: CNC(=O)C1=CC=CC=C1NC2=NC(=NC=C2Cl)NC3=C(C=C(C=C3)N4CCOCC4)OC
The experiment is described as follows: log2 fold change, soluble protein after heating vs DMSO (PISA); higher = thermal stabilisation; K562 lysate, 10 uM; active = over 0.2 and 3.5 SD of the protein, either way, in both replicates (recomputed). The essentials: (§1)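 Values give the log-two fold change in thermal stability against solvent controls, from duplicates. Crude K562 extract at 1 mg/mL protein, made by dounce homogenisation in PBS pH 7.4 with 1 mM MgCl2, was treated with 10 μM compound for 30 min. After 3 min heating across 48°C-58°C, aliquots were pooled, adjusted to 0.5% NP-40 at 4°C and centrifuged at 21,000xg for 90 min. The supernatant was measured by TMTpro 16plex LC-MS/MS with channel sums equalised.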
For the target DNM2 isoform 4 (UniProt P50570), the log2 fold change is inactive: -0.278.

On to DNAJB9 (UniProt Q9UBS3), for which the log2 fold change is inactive: 0.012.

Take DNM1 (UniProt Q05193): the log2 fold change is inactive: 0.017.

As for DHTKD1 (UniProt Q96HY7), the log2 fold change is inactive: 0.109.

As to DOCK6 (UniProt Q96HP0), the log2 fold change was inactive: -0.027.

With DONSON (UniProt Q9NYP3), the log2 fold change is inactive: 0.069.

DNAJB1 (UniProt M0R128): the log2 fold change was inactive: -0.029.

For the target DOK2 (UniProt O60496), the log2 fold change is inactive: -0.159.

Regarding DNMT3A (UniProt Q9Y6K1), the log2 fold change is inactive: -0.032.

On to DPAGT1 (UniProt Q9H3H5), for which the log2 fold change was inactive: 0.077.

As to DNPEP (UniProt B9ZVU2), the log2 fold change was inactive: 0.016.

For DHRSX (UniProt Q8N5I4), the log2 fold change was inactive: -0.114.

Consider DLX2 (UniProt Q07687), for which the log2 fold change is inactive: 0.235.

For DHRS13 (UniProt Q6UX07), the log2 fold change was inactive: -0.083.

In the case of DNLZ (UniProt Q5SXM8), the log2 fold change was inactive: 0.013.

Compound in a further experiment: CNc1nc(-c2ccc3c(N)n[nH]c3c2)cc(N2C[C@@H](C(=O)NC3CCCCC3)CC[C@H]2C)n1
The description is as above. In short, it runs like this: as §1
For DNM2 isoform 4 (UniProt P50570), the log2 fold change was inactive: 0.055.

With DLGAP5 isoform 3 (UniProt Q15398), the log2 fold change is inactive: -0.051.

Turning to DNAJB9 (UniProt Q9UBS3), the log2 fold change was inactive: -0.149.

Take DNM1 (UniProt Q05193): the log2 fold change is inactive: -0.206.

Consider DOCK6 (UniProt Q96HP0), for which the log2 fold change is inactive: 0.154.

On to DONSON (UniProt Q9NYP3), for which the log2 fold change was inactive: 0.005.

Consider DNAJC16 (UniProt Q9Y2G8), for which the log2 fold change was inactive: -0.152.

As for DMD isoform 14 (UniProt P11532), the log2 fold change was inactive: 0.315.

Regarding DOP1A (UniProt Q5JWR5), the log2 fold change is inactive: 0.235.

In the case of DHX33 (UniProt Q9H6R0), the log2 fold change is inactive: 0.023.

For the target DNAJC14 (UniProt Q6Y2X3), the log2 fold change was inactive: 0.095.

For DNPEP (UniProt B9ZVU2), the log2 fold change was inactive: 0.042.

Regarding DHRSX (UniProt Q8N5I4), the log2 fold change is inactive: 0.053.

For the target DHRS13 (UniProt Q6UX07), the log2 fold change was inactive: 0.004.

Compound in the next experiment: COC(=O)N[C@@H](C)CNc1nccc(-c2cn(C(C)C)nc2-c2cc(Cl)cc(NS(C)(=O)=O)c2F)n1 [encorafenib]
The description is as above. In short, it runs like this: as §1
As to DNM2 isoform 4 (UniProt P50570), the log2 fold change is inactive: 0.13.

As for DOP1A (UniProt Q5JWR5), the log2 fold change is inactive: -0.036.

Consider DIPK1A (UniProt Q5T7M9), for which the log2 fold change is inactive: -0.008.

Take DNAJC14 (UniProt Q6Y2X3): the log2 fold change was inactive: 0.111.

For DNPEP (UniProt B9ZVU2), the log2 fold change is inactive: 0.026.

Consider DLC1 (UniProt Q96QB1), for which the log2 fold change is inactive: -0.095.

Compound in a further experiment: COC(=O)[C@H](CCSC)NC(=O)C1=C(C=C(C=C1)NC[C@H](CS)N)C2=CC=CC=C2
The experiment is described as above. In short, it runs like this:
as §1
Turning to DNM2 isoform 4 (UniProt P50570), the log2 fold change was inactive: 0.06.

DOP1A (UniProt Q5JWR5): the log2 fold change is inactive: -0.039.

In the case of DIPK1A (UniProt Q5T7M9), the log2 fold change is inactive: -0.078.

Turning to DNAJC14 (UniProt Q6Y2X3), the log2 fold change is inactive: -0.237.

For the target DNPEP (UniProt B9ZVU2), the log2 fold change was inactive: -0.027.

As for DLC1 (UniProt Q96QB1), the log2 fold change is inactive: 0.052.

Compound in a further experiment: COc1cc(Nc2ncc3c(n2)-c2ccc(Cl)cc2C(c2c(F)cccc2OC)=NC3)ccc1C(=O)O [alisertib]
The experiment is described as above. The essentials: as §1
As to DNM2 isoform 4 (UniProt P50570), the log2 fold change is inactive: -0.007.

For DNAJC19, A0A2R8Y839, the log2 fold change was inactive: 0.038.

DNM1 (UniProt Q05193): the log2 fold change is inactive: 0.072.

On to DHTKD1 (UniProt Q96HY7), for which the log2 fold change was inactive: -0.198.

As to DONSON (UniProt Q9NYP3), the log2 fold change was inactive: -0.05.

As for DGCR6L (UniProt Q9BY27), the log2 fold change is inactive: -0.087.

In the case of DOCK11, A0A0J9YW64, the log2 fold change was inactive: 0.078.

Take DNAJB1 (UniProt M0R128): the log2 fold change is inactive: 0.109.

In the case of DNAJC16 (UniProt Q9Y2G8), the log2 fold change was inactive: 0.032.

As for DOP1A (UniProt Q5JWR5), the log2 fold change was inactive: -0.023.

On to DNMT1 (UniProt P26358), for which the log2 fold change was inactive: -0.112.

In the case of DHPS (UniProt M0R1T2), the log2 fold change was inactive: 0.047.

As to DPAGT1 (UniProt Q9H3H5), the log2 fold change was inactive: -0.021.

Take DNPEP (UniProt B9ZVU2): the log2 fold change was inactive: -0.009.

For the target DNASE1L1 (UniProt P49184), the log2 fold change is inactive: 0.171.

As for DHRS13 (UniProt Q6UX07), the log2 fold change was inactive: -0.211.

For the target DNLZ (UniProt Q5SXM8), the log2 fold change is inactive: 0.061.

Compound in another experiment: COc1cc2nc(-c3cc(F)ccc3O)nc(N[C@@H]3CNC[C@H]3C(C)(C)O)c2cc1OC
Described as above. In short, it runs like this: as §1
Regarding DNM2 isoform 4 (UniProt P50570), the log2 fold change is inactive: -0.032.

As for DNAJB9 (UniProt Q9UBS3), the log2 fold change was inactive: 0.03.

On to DNM1 (UniProt Q05193), for which the log2 fold change is inactive: -0.07.

As for DHTKD1 (UniProt Q96HY7), the log2 fold change is inactive: -0.022.

DONSON (UniProt Q9NYP3): the log2 fold change is inactive: 0.028.

DNAJB1 (UniProt M0R128): the log2 fold change is inactive: 0.028.

Regarding DOCK5 (UniProt Q9H7D0), the log2 fold change was inactive: 0.11.

DOK2 (UniProt O60496): the log2 fold change is inactive: 0.094.

For DNMT3A (UniProt Q9Y6K1), the log2 fold change was inactive: 0.416.

Take DHX33 (UniProt Q9H6R0): the log2 fold change was inactive: -0.019.

Consider DPAGT1 (UniProt Q9H3H5), for which the log2 fold change was inactive: 0.045.

Regarding DNPEP (UniProt B9ZVU2), the log2 fold change was inactive: -0.021.

Take DNASE1L1 (UniProt P49184): the log2 fold change was inactive: -0.072.

As for DHRS13 (UniProt Q6UX07), the log2 fold change is inactive: -0.138.

DNLZ (UniProt Q5SXM8): the log2 fold change is inactive: -0.085.
